These are yes or no findings as the source states them, for the method shown. Some results given as binding are weak or reduced against the parent protein; the word gives no strength.
Target: T1, DHR2 domain of human DOCK11 (DOCK11^DHR2, residues 1609-2073) (human) (UniProt Q5JSL3)
T1 sequence: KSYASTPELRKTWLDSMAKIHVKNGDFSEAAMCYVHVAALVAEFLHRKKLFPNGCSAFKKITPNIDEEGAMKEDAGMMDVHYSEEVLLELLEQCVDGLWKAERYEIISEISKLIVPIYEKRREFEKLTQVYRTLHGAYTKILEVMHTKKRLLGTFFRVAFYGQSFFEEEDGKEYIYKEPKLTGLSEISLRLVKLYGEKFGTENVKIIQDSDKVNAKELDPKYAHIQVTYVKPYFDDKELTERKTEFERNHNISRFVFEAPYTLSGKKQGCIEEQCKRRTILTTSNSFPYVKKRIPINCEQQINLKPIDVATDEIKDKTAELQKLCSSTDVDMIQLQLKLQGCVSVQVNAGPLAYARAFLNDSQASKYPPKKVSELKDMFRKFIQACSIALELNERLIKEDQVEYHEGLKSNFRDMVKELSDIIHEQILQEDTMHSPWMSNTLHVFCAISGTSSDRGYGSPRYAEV
Experiment: pull-down

Protein sequences, listed by entry. Tags and fused reporters are not part of them.
UniProt P60953: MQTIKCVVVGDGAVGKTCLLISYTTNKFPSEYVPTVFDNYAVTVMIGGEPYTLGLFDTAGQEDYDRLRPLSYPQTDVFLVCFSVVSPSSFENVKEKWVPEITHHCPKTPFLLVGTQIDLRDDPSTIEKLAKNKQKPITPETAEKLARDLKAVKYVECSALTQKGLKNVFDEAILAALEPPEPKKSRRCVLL

binding: binds
Substance: CDC42 (residues 1-191) (from UniProt P60953 1-191)

Source: paper doi:10.1101/2022.06.15.496229
